The other results are listed elsewhere or left out. The main result of the screen is listed elsewhere. These columns were measured beside it and carry no call. Most of these compounds were active or inconclusive in the main read-out, so they are no random draw. Potencies come from curve fits of mixed quality, noted in brackets.

A short description of the experiment: qHTS Assay for Lipid Storage Modulators in Drosophila S3 Cells.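 On cell number change: cells counted by Cell Tracker Red CMTPX staining in the red channel.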 Particulars: BODIPY lipid droplet fluorescence, 18-24 h; for cell number change: measured here: cell count max response, cells fed with added oleic acid. The method in brief: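 Drosophila S3 cells got compounds at several concentrations plus oleic acid (400 uM solution). Laser-scanning cytometry with 488 nm excitation read lipid droplets at 500-530 nm and cells at 575-640 nm. Percent activity was relative to 20 uM Triacsin C.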
(In qHTS, concentration-response curves come from the screen itself.)

Where [1] appears, read: measured here: lipid fluorescence (Fed channel) AC50, cells fed with added oleic acid.
[2] abbreviates: measured here: cell number channel AC50, cells fed with added oleic acid.

As for `COc1ccc(C2/C(=C(/O)c3ccc4c(c3)CC(C)O4)C(=O)C(=O)N2CCCn2ccnc2)cc1` (stereo unspecified), the cell number change is -6.49%. In addition, under setting [1], the AC50 was 29.1 µM [rising, single point]. For the molecule `O=[N+]([O-])c1ccccc1CN1CCN(Cc2c[nH]c3ccccc23)CC1`, the cell number change amounted to 19.8%. In addition, the AC50 under setting [1] is 1.16 µM [falling, single point]. For `Cc1ccc(S(=O)(=O)Nc2nc(C)c(NC(=O)OCCCl)s2)cc1`, the cell number change came to 27.7%. As to `CCN1C(=O)CC(C(=O)NCCc2ccc(S(N)(=O)=O)cc2)SC1=Nc1ccc(OC)cc1` (stereo unspecified), the cell number change was determined as 6.87%. Further, the AC50 under setting [2] was 3.26 µM [falling, single point]. Further, under setting [1], the AC50 is 2.91 µM [falling, single point]. For the molecule `COc1ccc(NC(=S)N(CCc2c(C)[nH]c3ccccc23)Cc2ccco2)cc1`, the cell number change is -14.9%. Also, the concentration at half-maximal activity (AC50) under setting [1] is 3.26 µM [rising, partial curve]. On to `Cn1cnnc1SCC(=O)c1c[nH]c2ccccc12`, for which the cell number change turned out to be 1.38%. On to `COc1ccccc1CNS(=O)(=O)c1c(C(=O)N2CCCCC2)c(C)n(C)c1C`, for which the cell number change is -20.8%. Under setting [1], the AC50 is 23.1 µM [falling, single point]. As for `N/C(=N\OC(=O)CCC1CCCC1)c1ccccc1`, the cell number change turned out to be 12.9%. Besides, the AC50 under setting [1] is 3.26 µM [rising, single point].

Consider `COc1cc(C(=O)N2CCN(c3cccc(C)c3C)CC2)ccc1OCC(=O)N1CCOCC1`, for which the cell number change was -3.08%. Further, the AC50 under setting [1] is 1.64 µM [rising, partial curve]. With `CNC[C@H](CC1CCCCC1)NC[C@H](Cc1ccccc1)NCCC12CC3CC(CC(C3)C1)C2`, the cell number change was -29.6%. Also, the AC50 under setting [1] is 16.4 µM [falling, partial curve]. Take `COc1ccc2[nH]c(=S)[nH]c2c1`: the cell number change is 45%. For the same molecule, under setting [2], the AC50 was 16.4 µM [rising, single point]. Also, the AC50 under setting [1] was 4.11 µM [falling, single point].

With `COc1ccc(NC(=O)C2CCN(C(=O)[C@@H]3Cc4ccccc4CN3C(=O)OC(C)(C)C)CC2)cc1`, the cell number change amounted to 2.02%.

With `Cc1ccc(/C=C2\SC(=S)N(CCC(=O)NNC(=O)c3ccc(O)cc3)C2=O)cc1`, the cell number change amounted to 13%. For the same molecule, the AC50 under setting [1] was 0.651 µM [rising, single point].

As for `COc1cc(C=O)ccc1OS(=O)(=O)c1ccccc1[N+](=O)[O-]`, the cell number change is 12.7%. For the same molecule, the AC50 under setting [2] is 3.66 µM [falling, single point]. For the same molecule, the AC50 under setting [1] was 6.51 µM [falling, single point]. Regarding `CCOc1ccc(CCNC(=O)C2CCN(c3nnc(-n4cccc4)s3)CC2)cc1`, the AC50 under setting [1] was 0.291 µM [rising, full curve, poor fit]. `CC(C)OC(=O)/C(=C\C=C\c1ccccc1)NC(=O)c1ccccc1`: the cell number change is -41.2%. In addition, the half-maximal activity concentration (AC50) under setting [2] was 23.1 µM [falling, single point]. For the same molecule, the AC50 under setting [1] was 20.6 µM [falling, single point]. Take `CCn1cc(Br)c(C(=O)Nc2cccc(SC)c2)n1`: the cell number change is -18.7%. Moreover, the AC50 under setting [1] was 2.59 µM [rising, single point].

As to `O=C(CN1C(=O)/C(=C/c2ccccc2)Sc2ccccc21)NCCCN1CCOCC1`, the cell number change turned out to be 26.9%. In addition, the half-maximal activity concentration (AC50) under setting [2] was 0.0411 µM [rising, full curve, poor fit].

As for `CCOc1cccc(-c2c(C(=O)N/N=C/c3ccsc3)nnn2-c2nonc2N)c1`, the cell number change is -24.2%. The AC50 under setting [1] is 23.1 µM [falling, single point]. Regarding `COc1cc(NC(=O)C2CCCCC2)c2ncccc2c1`, the AC50 under setting [1] was 0.326 µM [falling, partial curve, poor fit]. As for `CCOC(=O)c1nc(-c2ccccc2)oc1N1CCOCC1`, the cell number change is 161%. On the same count and under the same terms, next, `CC(=O)NCCNC(=O)c1ccc2c(c1)S(=O)(=O)c1ccccc1C2=O`: -12.4%. `O=C(N/N=C/c1ccc(N2CCOCC2)cc1)c1ccccc1OCCOc1ccccc1`: the cell number change was -21%. The AC50 under setting [1] was 29.1 µM [falling, single point]. As to `CC(=O)N1c2c(cc(Br)cc2S(=O)(=O)N2CCCCC2)CC1C` (stereo unspecified), the cell number change was 3.48%. As for `CCn1c(=O)cc(OCC(=O)Nc2cccc(C)n2)c2ccccc21`, the AC50 is 0.411 µM [rising, full curve] under setting [2] and 10.3 µM [rising, partial curve] under setting [1]. Consider `COCC1CCCN(C(=O)c2ccc3nc(Cc4cccc(Cl)c4)oc3c2)C1` (stereo unspecified), for which the cell number change is -2.05%. On to `CCOC(=O)Nc1ccc2c(CN3C(=O)NC(CC)(CC)C3=O)cc(=O)oc2c1`, for which the cell number change is -48.4%. Also, the AC50 under setting [2] is 16.4 µM [falling, single point]. Further, under setting [1], the AC50 was 3.26 µM [rising, partial curve].

On to `CCOC(=O)c1cc(OC(=O)c2cccs2)n(-c2ccccc2)n1`, for which the cell number change was 1.56%. In addition, under setting [1], the AC50 was 23.1 µM [rising, single point]. Turning to `O=C(CSc1ccccc1)Nc1cc(S(=O)(=O)N2CCOCC2)ccc1N1CCOCC1`, under setting [2], the AC50 is 3.26 µM [rising, single point]. Same read-out and setting: the figure for `Cc1cc(C)n2nc(SCC(=O)N(C)c3c(N)n(Cc4ccccc4)c(=O)[nH]c3=O)nc2n1` is 6.51 µM [rising, single point].

Take `Cc1cccc(C(=O)CC(=O)c2cc(Cl)ccc2O)c1`: the cell number change was determined as 13.9%. Moreover, the AC50 under setting [2] was 6.51 µM [rising, single point]. For the same molecule, under setting [1], the AC50 is 14.6 µM [rising, partial curve]. Consider `CCOC(=O)c1oc2nc(C(C)C)c3c(c2c1N)CC(C)(C)OC3`, for which the cell number change is -7.84%. Further, under setting [1], the AC50 was 9.2 µM [rising, partial curve, poor fit]. For `CCCCC1CCC(C(=O)OCC(=O)N(CCOC)c2c(N)n(Cc3ccccc3)c(=O)[nH]c2=O)CC1` (stereo unspecified), the cell number change was -27.6%. In addition, the AC50 under setting [2] is 4.61 µM [falling, full curve, poor fit]. Turning to `O=C(CSc1nncs1)Nc1ccc(S(=O)(=O)N2CCCC2)cc1`, the cell number change stood at 5.05%. For `O=C(COC(=O)c1ccc(S(=O)(=O)N2CCCC2)cc1)Nc1ccc(Cl)cc1`, the cell number change is -32.6%. Further, the AC50 under setting [2] was 3.66 µM [falling, full curve, poor fit]. Besides, under setting [1], the AC50 was 4.11 µM [falling, full curve, poor fit]. For `CCOC(=O)NNC1CC(=O)N(c2ccc(OC)cc2)C1=O` (stereo unspecified), the cell number change worked out at 146%. Under setting [2], the AC50 was 0.411 µM [rising, single point]. On to `COc1ccc(/C=C/C(=O)N(Cc2cccs2)C2CCS(=O)(=O)C2)cc1` (stereo unspecified), for which the cell number change was -12.8%.

With `Cc1oc2c(C)c3oc(=O)c(CCC(=O)NCCCN4CCCC4=O)c(C)c3cc2c1C`, the cell number change is 6.47%.

With `CC1CC1C(=O)OCC(=O)Nc1ccc(N=Nc2ccccc2)cc1` (stereo unspecified), the cell number change was 3.02%. Under setting [1], the concentration at half-maximal activity (AC50) is 29.1 µM [falling, single point].

In general, AC50 refers to the midpoint of the concentration-response curve, whichever way the signal moves.

These data come from PubChem BioAssay AID2685 (National Center for Advancing Translational Sciences (NCATS), 2010).
